Test [1] deals with GPR4-Rluc8 (UniProt P46093). The test can be described thus: FRET or BRET; basal net BRET between GPCR-Rluc8 and Venus-β-arrestin-1 or -2 in intact HEK 293 cells in DPBS, GRK2 and GRK6 co-transfected; no receptor ligand; interacting pairs detected as outliers (ROUT, FDR 1%).
In test [2] the target is GPR182-Rluc8 (UniProt O15218). The description is as above.

By UniProt entry, the sequences of proteins in these tests, tags left out.
UniProt P46093: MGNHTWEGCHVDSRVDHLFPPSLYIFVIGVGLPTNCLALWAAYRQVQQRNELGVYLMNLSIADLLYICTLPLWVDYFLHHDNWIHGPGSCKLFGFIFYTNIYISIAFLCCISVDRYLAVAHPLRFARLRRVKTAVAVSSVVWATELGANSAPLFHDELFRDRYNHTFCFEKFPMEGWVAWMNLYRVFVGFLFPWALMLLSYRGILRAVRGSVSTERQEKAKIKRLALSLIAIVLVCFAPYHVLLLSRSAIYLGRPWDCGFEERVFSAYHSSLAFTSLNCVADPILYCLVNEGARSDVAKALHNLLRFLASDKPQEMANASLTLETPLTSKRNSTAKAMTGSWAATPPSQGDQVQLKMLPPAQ
UniProt O15218: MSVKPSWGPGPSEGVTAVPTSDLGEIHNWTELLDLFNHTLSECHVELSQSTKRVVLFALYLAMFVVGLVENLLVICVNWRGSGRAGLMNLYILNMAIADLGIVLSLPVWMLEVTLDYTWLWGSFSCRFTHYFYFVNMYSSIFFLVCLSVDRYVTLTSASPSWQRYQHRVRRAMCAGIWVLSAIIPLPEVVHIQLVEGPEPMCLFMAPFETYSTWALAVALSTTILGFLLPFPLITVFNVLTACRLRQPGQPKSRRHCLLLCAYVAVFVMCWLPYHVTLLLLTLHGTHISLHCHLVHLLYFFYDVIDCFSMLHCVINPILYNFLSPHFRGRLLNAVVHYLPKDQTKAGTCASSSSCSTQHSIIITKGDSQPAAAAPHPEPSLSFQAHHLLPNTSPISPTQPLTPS
UniProt P49407: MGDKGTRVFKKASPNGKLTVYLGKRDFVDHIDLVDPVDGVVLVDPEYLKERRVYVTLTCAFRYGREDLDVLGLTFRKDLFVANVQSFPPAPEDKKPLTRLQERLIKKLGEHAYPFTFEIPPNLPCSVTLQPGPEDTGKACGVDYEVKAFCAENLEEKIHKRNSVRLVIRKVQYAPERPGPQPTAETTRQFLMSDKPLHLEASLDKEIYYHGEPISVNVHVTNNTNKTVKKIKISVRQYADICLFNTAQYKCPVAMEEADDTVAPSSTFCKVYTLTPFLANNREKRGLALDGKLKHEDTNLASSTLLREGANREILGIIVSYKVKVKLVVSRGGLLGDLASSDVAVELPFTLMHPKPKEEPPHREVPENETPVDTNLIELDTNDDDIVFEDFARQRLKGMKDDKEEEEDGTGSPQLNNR
UniProt P32121: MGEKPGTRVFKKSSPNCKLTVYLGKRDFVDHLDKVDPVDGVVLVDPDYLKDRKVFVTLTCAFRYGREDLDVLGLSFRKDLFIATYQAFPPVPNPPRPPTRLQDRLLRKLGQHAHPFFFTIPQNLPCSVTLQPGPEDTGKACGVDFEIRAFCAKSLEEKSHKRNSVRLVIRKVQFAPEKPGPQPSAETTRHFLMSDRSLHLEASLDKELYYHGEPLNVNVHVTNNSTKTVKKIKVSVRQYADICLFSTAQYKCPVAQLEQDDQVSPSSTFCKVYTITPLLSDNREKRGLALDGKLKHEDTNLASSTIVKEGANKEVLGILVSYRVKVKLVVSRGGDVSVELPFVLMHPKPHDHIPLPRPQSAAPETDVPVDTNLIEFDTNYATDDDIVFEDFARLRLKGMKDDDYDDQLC

Results are given in words; binding and its absence hold for the method and conditions named. In cells and extracts the contact can be indirect. Some entries that bind do so weakly or less than the wild type.

In the case of “Venus-β-arrestin-1 (from UniProt P49407 1-418)”, the binding result in test [1] and in test [2] was “binds” throughout.
Consider “Venus-β-arrestin-2 (from UniProt P32121 1-409)”, for which, in test [1], the binding result is “binds”.

These data come from article PMC8062009.
